Test system: NK92 cells
Test: Quantitation of protein in NK92 cells by western blotting
Parameters: species or system human
Details: for protein expressed by 1×10^6 NK92 cells: Figure 4, representative blot, per 1×10^6 NK92 cells; for Mean (ng)/10^6 cells / Mass (ng)/10^6 cells: per 10^6 NK92 cells; for Mean (ng)/10^6 cells: n = 3 (SAP, EAT-2), n = 2 (SHP-2)
[1] = replicate 3 (third value printed)

Molecule | protein expressed by 1×10^6 NK92 cells | cellular concentration compared with KD (NK92 cells) | Mean (ng)/10^6 cells | Mass (ng)/10^6 cells (replicate 1 (first value)) | Mass (ng)/10^6 cells (replicate 2) | Mass (ng)/10^6 cells [1] | SAP concentration higher than EAT-2 (NK92 cells)
EAT-2: small SH2 domain containing adapter protein (protein, left off: His tag, end not stated, state not stated, small SH2 domain containing adapter protein) MDLPYYHGRLTKQDCETLLLKEGVDGNFLLRDSESIPGVLCLCVSFKNIVYTYRIFREKHGYYRIQTAEGSPKQVFPSLKELISKFEKPNQGMVVHLLKPIKRTSPSLRWRGLKLELETFVNSNSDYVDVLP | 7 ng | two orders of magnitude above the KD | 7 ng | 5 ng | 8 ng | 9 ng | –
SAP: small SH2 domain containing adapter protein (protein, UniProt O60880 1-128, looked up) SH2 domain-containing protein …: MDAVAVYHGKISRETGEKLLLATGLDGSYLLRDSESVPGVYCLCVLYHGYIYTYRVSQTETGSWSAETAPGVHKRYFRKIKNLISAFQKPDQGIVIPLQYPVEKKSSARSTQGTTGIREDPDVCLKAP | 30 ng | – | 28 ng | – | 30 ng | 33 ng | four

Reference: article PMC3958483, “Fine Specificity and Molecular Competition in SLAM Family Receptor Signalling” (PLoS ONE, 2014)
